The supplement of paper PMC8288183
This is one part of the list. Single values are uncertain, as repeats are few or missing.

Biological target: T1, NSUN6 (UniProt Q8TEA1)
T1 sequence: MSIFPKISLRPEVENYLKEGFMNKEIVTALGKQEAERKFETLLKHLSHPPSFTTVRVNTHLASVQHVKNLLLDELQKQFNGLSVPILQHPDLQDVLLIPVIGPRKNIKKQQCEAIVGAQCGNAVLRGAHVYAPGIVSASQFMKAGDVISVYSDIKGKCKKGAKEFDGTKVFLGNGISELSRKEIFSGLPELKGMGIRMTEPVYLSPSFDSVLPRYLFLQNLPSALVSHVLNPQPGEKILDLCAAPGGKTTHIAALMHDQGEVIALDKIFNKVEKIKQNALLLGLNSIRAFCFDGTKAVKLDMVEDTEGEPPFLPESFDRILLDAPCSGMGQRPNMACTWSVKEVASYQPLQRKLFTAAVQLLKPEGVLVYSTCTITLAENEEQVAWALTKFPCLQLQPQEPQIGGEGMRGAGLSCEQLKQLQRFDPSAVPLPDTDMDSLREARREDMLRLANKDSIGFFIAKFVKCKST
Assay: m5C methylation level at the target C (C/(C+U) bisulfite reads) (fraction); higher = more methylation by NSUN6; extreme values may be limits of the assay
Conditions: HEK293T (wild-type)
Method: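 High-throughput mutagenesis reporter. About 140 bp oligo-pool variants of four natural Type II m5C substrates (substrate #1 chr15:91425541; #2 RAB15 3'UTR chr14:65413377; #3 SULT2A1 5'UTR chr19:48389569; #4 NAAA CDS chr4:76857361) were cloned as 3'UTR elements of psiCHECK-2 luciferase and transfected into wild-type HEK293T cells. Total RNA was taken 48 h later and m5C level was measured by targeted bisulfite sequencing as C/(C+U) reads at the m5C site (one library).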

[1] = parent substrate: substrate #1 (main figure)

Sequence	m5C methylation level at the target C [1]	m5C methylation level at the target C (parent substrate: substrate #2)	m5C methylation level at the target C (parent substrate: substrate #3)	m5C methylation level at the target C (parent substrate: substrate #4)
CCGAAU	0	0.00398	0.000737	0.00111
ACACGA	0	0.00226	0.00249	0
GCAGAU	0	0	0	0.001
CCCUGG	0.0031	0	0.00185	0.0017
GCCGGG	0.000704	0.00175	0.00111	0.00183
ACCGAU	0	0	0.00311	0
UCGGUU	0.00787	0.000929	0	0.00131
UCGAUG	0	0.00101	0.00374	0.00303
UCGAUC	0.000457	0	0.00179	0
GCGCUU	0	0.00909	0.00199	0.000881
CCGACU	0	0.00506	0.00111	0.00788
CCCUUG	0	0.00198	0.00155	0.00579
UCGGGC	0.00334	0.00408	0.00132	0
GCGAGA	0.00237	0.000672	0.00123	0.00311
GCGCUG	0.00307	0	0.00197	0.000521
GCGUCU	0	0.000942	0.00545	0.00229
GCCGGC	0.00111	0.00164	0.00169	0.000399
UCGUAC	0.00134	0	0.000507	0.00772
UCGUGC	0.017	0.000912	0.00179	0.00323
GCGGCG	0.00131	0.00252	0.00203	0
UCAAAU	0	0	0	0
CCCUAU	0	0	0.000696	0.00103
UCCCAA	0.000524	0	0	0.00145
UCUCAU	0	0	0	0.00148
UCCUUU	0	0	0.00174	0.00066

Four entries picked at random from those above:
Sequence	m5C methylation level at the target C [1]	m5C methylation level at the target C (parent substrate: substrate #2)	m5C methylation level at the target C (parent substrate: substrate #3)	m5C methylation level at the target C (parent substrate: substrate #4)
GCGCUG	0.00307	0	0.00197	0.000521
CCCUUG	0	0.00198	0.00155	0.00579
UCGAUC	0.000457	0	0.00179	0
CCGACU	0	0.00506	0.00111	0.00788

Continuation.

Sequence	m5C methylation level at the target C [1]	m5C methylation level at the target C (parent substrate: substrate #2)	m5C methylation level at the target C (parent substrate: substrate #3)	m5C methylation level at the target C (parent substrate: substrate #4)
ACUUAC	0	0	0.000724	0.00103
CCUCAU	0	0	0	0
CCUCUA	0.156	0.0223	0.116	0.0279
CCUAAA	0.00143	0.00414	0	0
GCUACU	0.00263	0.00818	0.000419	0.000624
GCCAUA	0.00081	0.00131	0	0.00172
CCUGAA	0.00767	0.00416	0.00303	0.000623
UCCGGU	0	0	0	0.00339
GCCUCU	0.00298	0.00199	0.000761	0.00303
UCACUU	0.000781	0.0025	0.0134	0.00345
GCAGCA	0.00134	0	0.00264	0
ACCUGA	0.000746	0.00773	0	0.00124
UCAACG	0.00212	0.00112	0.0035	0
ACAGCU	0	0	0	0
CCACCA	0	0	0.000409	0.00281
ACUAGG	0.00408	0	0.00289	0
CCCUUU	0	0	0.000804	0.00317
CCCCUA	0	0.00207	0.00127	0.00225
GCGUAU	0.00241	0.00124	0.000917	0.00202
CCUGGU	0.000979	0	0.00234	0.000747
UCCCGA	0.00102	0.00134	0.000828	0
ACCAGC	0.00112	0.000666	0.000377	0.000521
CCAUAC	0	0	0	0.00207
ACUGGU	0	0	0.00331	0.0056
ACCGUU	0.000676	0	0.00094	0.00541

Sequence	m5C methylation level at the target C [1]	m5C methylation level at the target C (parent substrate: substrate #2)	m5C methylation level at the target C (parent substrate: substrate #3)	m5C methylation level at the target C (parent substrate: substrate #4)
CCACGC	0	0	0.000836	0.000458
CCGGAG	0.0113	0.00396	0.00307	0.00435
GCCACG	0	0.00177	0.00288	0.000752
UCCAGG	0.00143	0	0.00197	0.00177
GCGAGU	0.00352	0.00209	0.00441	0
UCACUC	0.000335	0	0.000747	0.00985
GCAUCA	0.00184	0	0.00111	0
ACCAUG	0	0.00169	0.000477	0.0013
ACCUUU	0.000693	0	0.00349	0.000902
GCUCGC	0.00485	0.0039	0.00185	0.00122
GCUAGC	0.00189	0.00274	0.00181	0.000635
UCCGAG	0.000941	0.00411	0.000904	0.000912
GCCGAA	0.000749	0.00239	0.00274	0
UCUUCC	0.00121	0	0	0.00102
ACGCGA	0.00521	0.00378	0.000708	0.00162
UCGUCG	0.000962	0.00252	0.00107	0.000827
ACUACA	0.000699	0	0.000611	0.00119
ACUAGA	0.00601	0.00452	0	0.000951
ACGUCA	0.00252	0	0.00226	0
ACCACU	0.0153	0	0.00502	0
GCUAAU	0.000998	0.0192	0.00281	0.00423
GCGAAA	0.00535	0.00455	0	0.0037
UCCGUA	0.00079	0.000933	0.000471	0.00126
